Source: paper PMC7515736
Results are given in words; binding and its absence hold for the method and conditions named. For some of these results: In cells and extracts the contact can be indirect. Some results given as binding are weak or reduced against the parent protein; the word gives no strength.

Amino acid sequences for entries named in this document (tags omitted).
UniProt P17839: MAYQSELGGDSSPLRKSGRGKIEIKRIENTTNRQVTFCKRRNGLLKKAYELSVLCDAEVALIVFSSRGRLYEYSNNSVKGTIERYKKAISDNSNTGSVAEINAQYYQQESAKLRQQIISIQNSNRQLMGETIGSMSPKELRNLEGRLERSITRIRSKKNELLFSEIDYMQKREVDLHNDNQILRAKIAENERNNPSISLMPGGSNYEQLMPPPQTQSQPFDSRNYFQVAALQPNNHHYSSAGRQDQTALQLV

Legend:
[1] = biological target: SEP3^Δtet, SEP3 splice variant with deletion of amino acids 161-174, SEP3^Δtet-3xFLAG (Arabidopsis thaliana) (UniProt O22456); test: co-IP; sequential immunoprecipitation of co-translated proteins from a 50 ul wheat germ TnT reaction: anti-FLAG magnetic beads (1 h, room temperature, PBS with 0.005% NP40 and proteinase inhibitors), elution with 3xFLAG peptide, then anti-c-Myc magnetic beads; Western blots after each step
[2] = biological target: …3 (SEP3), SEP3-3xFLAG (Arabidopsis thaliana) (UniProt O22456); test: as above
[3] = biological target: SEP3^Δtet, SEP3 splice variant with deletion of amino acids 161-174, SEP3^Δtet-3xFLAG (Arabidopsis thaliana) (UniProt O22456); test: native gel or EMSA; EMSA with Cy5-labelled 96-bp KNU promoter probes with two CArG boxes of varied spacing; proteins co-produced in wheat germ TnT without further purification; complexes seen as tetramer or dimer bands on DNA
[4] = biological target: …3 (SEP3), SEP3-3xFLAG (Arabidopsis thaliana) (UniProt O22456); test: as above

Measured: binding

AGAMOUS (AG), AG-5xMyc (from UniProt P17839 1-252)
binds: all assays above
